Results are given in words; binding and its absence hold for the method and conditions named. In cells and extracts the contact can be indirect. Some binding calls cover weakened binding; strength is not graded here. Sequences can lack the tags named with a protein.
Biological target: Myc-caspase-8-C/A (catalytic dead mutant of caspase-8, C360A) (human) (UniProt Q14790)
Test: co-IP

By UniProt entry, the sequences of proteins in these tests, tags left out. Where a name states a change or a piece, a line headed by the entry shows the natural chain unless it says otherwise.
UniProt Q14790, whole entry, looked up, stated change not applied: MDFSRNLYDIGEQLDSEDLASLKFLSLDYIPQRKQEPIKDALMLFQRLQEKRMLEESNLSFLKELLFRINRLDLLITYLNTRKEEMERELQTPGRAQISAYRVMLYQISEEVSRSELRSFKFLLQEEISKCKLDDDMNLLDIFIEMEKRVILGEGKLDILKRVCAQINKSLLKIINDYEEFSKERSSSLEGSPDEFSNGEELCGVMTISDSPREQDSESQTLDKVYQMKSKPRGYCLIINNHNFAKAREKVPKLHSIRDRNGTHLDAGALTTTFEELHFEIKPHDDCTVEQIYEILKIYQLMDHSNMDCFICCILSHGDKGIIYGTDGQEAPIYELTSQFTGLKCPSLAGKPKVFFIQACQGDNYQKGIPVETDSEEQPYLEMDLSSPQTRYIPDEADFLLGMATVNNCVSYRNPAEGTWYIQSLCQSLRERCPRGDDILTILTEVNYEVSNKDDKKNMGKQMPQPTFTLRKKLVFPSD

**Q.** With SLTENKYSQLDEEQPMEID (domain or fragment, UniProt P0DTC6 43-61) [GFP-ORF6-C (C-terminal domain of SARS-CoV-2 ORF6)] as the binder, how does the binding read?
**A.** binds

From PMC12591158
